Values from PubChem BioAssay AID1259308 (NCATS, 2017)
The deposit covers about 59,000 reagents; below is an unselected part. Over the whole deposit, about 1,510 (2.6%) are marked active. 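Calls use total luciferase alone and ignore viability, so some active siRNAs may act by altering cell number.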 The numbers tell different reagents against one gene apart. Further read-outs or replicates are left out here. No sequences are given here.

- Aim: 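Candidate targets for better recombinant protein yield in mammalian cells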 (primary screen)
- Cells: human HEK293 embryonic kidney cells stably expressing firefly luciferase (HEK-CMV-Luc2-Hygro)
- Reagents: single siRNA against human genes, 0.8 pmol siRNA per well
- Timing: 72 h
- Detection: 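Reporter luminescence and viable-cell signal on separate replicate plates, given as percent of non-targeting control and median/MAD z-scores, plus per-cell luciferase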
- Scale: total luciferase, z-score: higher = more reporter protein produced
- Rule for the call: 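Active when the median/MAD z-score for overall luciferase is greater than 3; a gene was taken forward for validation with new siRNAs if at least two of its three siRNAs passed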
- Calls: active = raised luciferase; inactive = no rise

| target | reagent no. | total luciferase, z-score | Outcome |
| --- | --- | --- | --- |
| MT1M | 1 | -0.38 | inactive |
| MT1M | 2 | -0.355 | inactive |
| MT1M | 3 | -1.07 | inactive |
| EDDM3A | 1 | -0.747 | inactive |
| EDDM3A | 2 | 0.08 | inactive |
| EDDM3A | 3 | -0.941 | inactive |
| COA4 | 1 | -0.0988 | inactive |
| COA4 | 2 | 1.16 | inactive |
| COA4 | 3 | 1.92 | inactive |
| SUCNR1 | 1 | -0.658 | inactive |
| SUCNR1 | 2 | -0.648 | inactive |
| SUCNR1 | 3 | 0.0113 | inactive |
| HAUS1 | 1 | -2.56 | inactive |
| HAUS1 | 2 | 2.85 | inactive |
| HAUS1 | 3 | 0.0914 | inactive |
| NVL | 1 | -0.198 | inactive |
| NVL | 2 | -0.233 | inactive |
| NVL | 3 | 0.016 | inactive |
| DMRTA1 | 1 | -0.528 | inactive |
| DMRTA1 | 2 | -0.171 | inactive |
| DMRTA1 | 3 | -0.00694 | inactive |

Next part, starting with the last 5 of the part before.
| target | reagent no. | total luciferase, z-score | Outcome |
| --- | --- | --- | --- |
| NVL | 2 | -0.233 | inactive |
| NVL | 3 | 0.016 | inactive |
| DMRTA1 | 1 | -0.528 | inactive |
| DMRTA1 | 2 | -0.171 | inactive |
| DMRTA1 | 3 | -0.00694 | inactive |
| CILP | 1 | 1.68 | inactive |
| CILP | 2 | -0.284 | inactive |
| CILP | 3 | 0.48 | inactive |
| OR5J2 | 1 | 0.282 | inactive |
| OR5J2 | 2 | 0.168 | inactive |
| OR5J2 | 3 | 3.24 | active |
| CHCHD2P9 | 1 | 0.624 | inactive |
| CHCHD2P9 | 2 | -0.527 | inactive |
| CHCHD2P9 | 3 | 1.7 | inactive |
| TP53TG5 | 1 | 0.0528 | inactive |
| TP53TG5 | 2 | 1.55 | inactive |
| TP53TG5 | 3 | 0.253 | inactive |
| PSMD6 | 1 | 1.7 | inactive |
| PSMD6 | 2 | 0.127 | inactive |
| PSMD6 | 3 | 0.927 | inactive |
| PDZD9 | 1 | -0.902 | inactive |
| PDZD9 | 2 | -0.365 | inactive |
| PDZD9 | 3 | 1.55 | inactive |
